In article PMC9609004, “Computational Design, Synthesis, and Pharmacological Evaluation of Naproxen-Guaiacol Chimera for Gastro-Sparing Anti-Inflammatory Response by Selective COX2 Inhibition” (Molecules, 2022):

Tested on: acetic-acid-induced writhing
Test: Analgesic activity, acetic-acid-induced abdominal writhing assay
Assay type: in vivo, ICR mice
Settings: acetic acid 1%, 10 mL/kg i.p.; S-naproxen 15 mg/kg, MAS-1696 equimolar 21.1 mg/kg, 4-allyl guaiacol 15.46 mg/kg; n = 6
Protocol: The ICR mice were used to carry out the analgesic activity by using the abdominal writhing assay method as described by us previously. The mice were divided into six various groups (n = 6) and the writhing response was initiated by intraperitoneal (i.p.) administration of a recently formulated acetic acid solution (1%, 10 mL/kg, i.p.). The number of writhes developed after the administration of acetic acid was considered an antinociceptive response and the count of total writhes per animal was also noted in a 20 min period. After 3 min of administration of the acetic acid solution, writhes were counted. % Inhibition = [1 − Nt/Nc] × 100 where Nc—number of writhes in the control group; Nt—number of writhes in the drug-treated group.

Structure (SMILES): COc1ccc2cc([C@H](C)C(=O)O)ccc2c1 [Naproxen, S-naproxen]
- Analgesic effect (inhibition of writhing): considerable inhibition
